The values below come from PMC7718874, “Coupling of H3K27me3 recognition with transcriptional repression through the BAH-PHD-CPL2 complex in Arabidopsis” (Nature Communications, 2020).

Assay [1] has as its target T1, PARALOG OF AIPP2 (PAIPP2), epitope-tagged in transgenic Arabidopsis (Arabidopsis) (UniProt F4KE59).
T1 sequence: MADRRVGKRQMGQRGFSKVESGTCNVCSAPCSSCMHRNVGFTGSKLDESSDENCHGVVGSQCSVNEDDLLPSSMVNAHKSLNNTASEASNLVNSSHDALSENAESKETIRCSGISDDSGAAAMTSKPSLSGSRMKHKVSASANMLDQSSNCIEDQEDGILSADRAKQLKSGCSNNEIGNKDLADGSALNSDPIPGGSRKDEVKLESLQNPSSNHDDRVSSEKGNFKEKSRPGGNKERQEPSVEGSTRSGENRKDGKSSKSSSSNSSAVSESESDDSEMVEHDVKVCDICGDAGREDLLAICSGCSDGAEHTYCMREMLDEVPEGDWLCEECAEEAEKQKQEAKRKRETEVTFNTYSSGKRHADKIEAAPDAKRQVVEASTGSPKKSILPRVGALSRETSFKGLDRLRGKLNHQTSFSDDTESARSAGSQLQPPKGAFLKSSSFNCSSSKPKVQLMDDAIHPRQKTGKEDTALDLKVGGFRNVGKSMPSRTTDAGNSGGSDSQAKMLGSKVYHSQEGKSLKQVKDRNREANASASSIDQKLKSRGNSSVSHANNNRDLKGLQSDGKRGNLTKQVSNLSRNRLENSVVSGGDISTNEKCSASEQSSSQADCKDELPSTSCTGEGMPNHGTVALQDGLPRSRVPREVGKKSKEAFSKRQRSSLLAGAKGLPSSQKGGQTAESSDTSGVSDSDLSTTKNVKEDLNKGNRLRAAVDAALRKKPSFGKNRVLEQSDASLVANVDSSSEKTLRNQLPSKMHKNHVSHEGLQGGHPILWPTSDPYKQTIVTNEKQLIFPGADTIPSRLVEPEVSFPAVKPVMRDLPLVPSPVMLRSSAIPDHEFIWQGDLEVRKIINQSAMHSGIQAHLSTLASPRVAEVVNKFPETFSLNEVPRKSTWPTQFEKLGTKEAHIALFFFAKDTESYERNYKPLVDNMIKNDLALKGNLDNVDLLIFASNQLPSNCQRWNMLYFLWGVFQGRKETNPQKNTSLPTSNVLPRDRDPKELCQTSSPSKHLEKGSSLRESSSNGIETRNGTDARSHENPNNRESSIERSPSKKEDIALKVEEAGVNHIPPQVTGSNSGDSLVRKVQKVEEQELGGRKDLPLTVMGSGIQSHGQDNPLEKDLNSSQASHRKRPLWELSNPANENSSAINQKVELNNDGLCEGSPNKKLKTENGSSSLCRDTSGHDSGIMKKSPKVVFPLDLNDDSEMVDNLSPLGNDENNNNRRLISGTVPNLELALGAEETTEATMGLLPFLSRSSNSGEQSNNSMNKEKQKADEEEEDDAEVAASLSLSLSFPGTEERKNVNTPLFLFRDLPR
Kind of assay: affinity purification with mass spectrometry; total proteins of inflorescence tissues of epitope-tagged transgenic plants in IP buffer (50 mM Tris-HCl pH 7.6, 150 mM NaCl, 5 mM MgCl2, 10% glycerol, 0.1% NP-40, 0.5 mM DTT), precipitated with anti-Flag or anti-Myc antibodies 2 h at 4 °C, five washes, MS.

In assay [2] the target is T2, CPL2, epitope-tagged in transgenic Arabidopsis (Arabidopsis) (UniProt Q5YDB5).
T2 sequence: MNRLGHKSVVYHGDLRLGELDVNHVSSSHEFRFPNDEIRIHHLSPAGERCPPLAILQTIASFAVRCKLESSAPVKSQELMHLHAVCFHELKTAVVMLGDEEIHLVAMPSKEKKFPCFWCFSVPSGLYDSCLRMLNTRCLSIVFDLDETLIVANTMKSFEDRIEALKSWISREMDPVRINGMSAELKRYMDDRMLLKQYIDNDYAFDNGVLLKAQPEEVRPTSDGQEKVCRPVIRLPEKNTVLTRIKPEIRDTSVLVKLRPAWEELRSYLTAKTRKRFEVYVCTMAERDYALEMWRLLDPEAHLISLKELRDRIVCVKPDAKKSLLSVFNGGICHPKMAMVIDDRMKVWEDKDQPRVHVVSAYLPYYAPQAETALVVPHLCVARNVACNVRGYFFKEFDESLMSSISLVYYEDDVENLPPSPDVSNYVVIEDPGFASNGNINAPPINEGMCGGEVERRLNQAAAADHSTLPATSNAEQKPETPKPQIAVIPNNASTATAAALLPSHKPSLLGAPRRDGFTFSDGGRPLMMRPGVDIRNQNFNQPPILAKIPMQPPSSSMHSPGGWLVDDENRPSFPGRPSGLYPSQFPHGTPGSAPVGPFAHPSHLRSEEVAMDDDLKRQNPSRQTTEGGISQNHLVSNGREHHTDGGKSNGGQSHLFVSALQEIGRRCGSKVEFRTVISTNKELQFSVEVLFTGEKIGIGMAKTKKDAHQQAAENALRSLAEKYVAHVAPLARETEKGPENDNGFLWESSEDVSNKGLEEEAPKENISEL
Described as above.

Results are given in words; binding and its absence hold for the method and conditions named. Binding seen in cells or lysates may run through a third protein. A yes stands for co-enrichment or nearness to the bait. Other partners may have been found. No binding means not detected with the bait. Sequences can lack the tags named with a protein.

B1: EMBRYONIC FLOWER 1 (EMF1) (protein, UniProt Q9LYD9 1-1096)
chain: MGSSIKINSISIDLAGAANEIDMVKCDHFSMRGFVAETRERDLRKCWPFSEESVSLVDQQSYTLPTLSVPKFRWWHCMSCIKDIDAHGPKDCGLHSNSKAIGNSSVIESKSKFNSLTIIDHEKEKKTDIADNAIEEKVGVNCENDDQTATTFLKKARGRPMGASNVRSKSRKLVSPEQVGNNRSKEKLNKPSMDISSWKEKQNVDQAVTTFGSSEIAGVVEDTPPKATKNHKGIRGLMECDNGSSESINLAMSGLQRRKSRKVRLLSELLGNTKTSGGSNIRKEESALKKESVRGRKRKLLPENNYVSRILSTMGATSENASKSCDSDQGNSESTDSGFDRTPFKGKQRNRRFQVVDEFVPSLPCETSQEGIKEHDADPSKRSTPAHSLFTGNDSVPCPPGTQRTERKLSLPKKKTKKPVIDNGKSTVISFSNGIDGSQVNSHTGPSMNTVSQTRDLLNGKRVGGLFDNRLASDGYFRKYLSQVNDKPITSLHLQDNDYVRSRDAEPNCLRDFSSSSKSSSGGWLRTGVDIVDFRNNNHNTNRSSFSNLKLRYPPSSTEVADLSRVLQKDASGADRKGKTVMVQEHHGAPRSQSHDRKETTTEEQNNDDIPMEIVELMAKNQYERCLPDKEEDVSNKQPSQETAHKSKNALLIDLNETYDNGISLEDNNTSRPPKPCSSNARREEHFPMGRQQNSHDFFPISQPYVPSPFGIFPPTQENRASSIRFSGHNCQWLGNLPTVGNQNPSPSSFRVLRACDTCQSVPNQYREASHPIWPSSMIPPQSQYKPVSLNINQSTNPGTLSQASNNENTWNLNFVAANGKQKCGPNPEFSFGCKHAAGVSSSSSRPIDNFSSESSIPALHLLSLLDPRLRSTTPADQHGNTKFTKRHFPPANQSKEFIELQTGDSSKSAYSTKQIPFDLYSKRFTQEPSRKSFPITPPIGTSSLSFQNASWSPHHQEKKTKRKDTFAPVYNTHEKPVFASSNDQAKFQLLGASNSMMLPLKFHMTDKEKKQKRKAESCNNNASAGPVKNSSGPIVCSVNRNPADFTIPEPGNVYMLTGEHLKVRKRTTFKKKPAVCKQDAMKQTKKPVCPPTQNA
Regarding B1, the binding result in assay [1] and in assay [2] was “no binding” throughout.
